Test results as given in patent US20200277349A1 (FRAUNHOFER GESELLSCHAFT ZUR F RDERUNG DER ANGEWANDTEN …, published 2020).
Results are given in words; binding and its absence hold for the method and conditions named. Some entries that bind do so weakly or less than the wild type. For some assays here: Sequences can lack the tags named with a protein.

Tests used:
[1] = target: T1, human IL-1R6 extracellular domain-Fc chimera (human) (UniProt Q9HB29); assay: plate binding assay on immobilized extracellular domain-Fc chimera (FIG. 3E)
T1 sequence (looked up): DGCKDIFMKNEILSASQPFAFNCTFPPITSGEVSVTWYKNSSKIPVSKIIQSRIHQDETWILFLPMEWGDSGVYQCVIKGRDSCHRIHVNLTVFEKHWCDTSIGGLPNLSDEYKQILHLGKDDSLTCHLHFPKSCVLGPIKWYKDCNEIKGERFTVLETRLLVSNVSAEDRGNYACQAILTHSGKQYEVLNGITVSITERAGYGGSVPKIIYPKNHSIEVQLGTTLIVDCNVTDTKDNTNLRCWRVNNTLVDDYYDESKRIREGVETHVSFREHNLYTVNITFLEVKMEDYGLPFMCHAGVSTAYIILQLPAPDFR

[2] = target: T2, human IL-1RAPL1 extracellular domain-Fc chimera (human) (UniProt Q9NZN1); assay: as above
T2 sequence (looked up): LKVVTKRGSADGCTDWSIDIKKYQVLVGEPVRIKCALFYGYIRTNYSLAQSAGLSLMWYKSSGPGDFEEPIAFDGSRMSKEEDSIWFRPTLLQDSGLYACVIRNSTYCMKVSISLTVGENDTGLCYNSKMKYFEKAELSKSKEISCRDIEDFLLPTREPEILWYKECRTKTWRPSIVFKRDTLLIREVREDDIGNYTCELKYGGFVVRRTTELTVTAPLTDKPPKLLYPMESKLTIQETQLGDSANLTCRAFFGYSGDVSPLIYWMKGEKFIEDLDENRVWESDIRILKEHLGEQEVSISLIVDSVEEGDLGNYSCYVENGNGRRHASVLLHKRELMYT

[3] = target: T3, IL-1RAPL1 on human macrophages (human) (UniProt Q9NZN1); assay: flow cytometry competition on human macrophages; competitor anti-IL-1RAPL1 staining antibody
T3 sequence (looked up): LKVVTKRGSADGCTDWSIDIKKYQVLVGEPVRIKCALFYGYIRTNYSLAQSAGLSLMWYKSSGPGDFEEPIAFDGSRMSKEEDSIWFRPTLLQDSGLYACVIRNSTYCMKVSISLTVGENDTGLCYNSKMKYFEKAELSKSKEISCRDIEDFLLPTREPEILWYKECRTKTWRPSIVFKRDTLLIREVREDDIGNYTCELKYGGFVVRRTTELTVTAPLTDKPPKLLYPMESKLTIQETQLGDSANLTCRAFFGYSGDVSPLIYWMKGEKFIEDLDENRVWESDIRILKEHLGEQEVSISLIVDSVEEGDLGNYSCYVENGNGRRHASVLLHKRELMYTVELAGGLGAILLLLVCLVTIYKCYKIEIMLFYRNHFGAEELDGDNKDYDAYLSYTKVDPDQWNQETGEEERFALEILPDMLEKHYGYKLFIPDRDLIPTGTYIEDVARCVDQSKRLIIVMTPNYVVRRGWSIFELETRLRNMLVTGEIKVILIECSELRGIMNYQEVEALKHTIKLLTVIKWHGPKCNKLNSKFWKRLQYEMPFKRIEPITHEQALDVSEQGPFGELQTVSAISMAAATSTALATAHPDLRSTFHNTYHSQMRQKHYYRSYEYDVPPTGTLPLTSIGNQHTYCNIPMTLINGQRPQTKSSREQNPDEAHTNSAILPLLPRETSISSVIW

[4] = target: T1, human IL-1R6 extracellular domain-Fc chimera (human); assay: plate binding assay: IL-1R6-Fc coated, IL-38 titrated, detected with biotinylated monoclonal IL-38 antibody
[5] = target: T2, human IL-1RAPL1 extracellular domain-Fc chimera (human); assay: plate binding assay: IL-1RAPL1-Fc coated, IL-38 titrated, detected with biotinylated monoclonal IL-38 antibody

binding [1]: binds
binding [2]: binds
binding [3]: binds
binding [4]: binds
binding [5]: binds
B1: recombinant human full length IL-38 (IL-38aa1-152) (ligand)
chain: MCSLPMARYYIIKYADQKALYTRDGQLLVGDPVADNCCAEKICILPNRGLARTKVPIFLGIQGGSRCLACVETEEGPSLQLEDVNIEELYKGGEEATRFTFFQSSSGSAFRLEAAAWPGWFLCGPAEPQQPVQLTKESEPSARTKFYFEQSW
